PubChem BioAssay AID1259308, NCATS | 2017

- Screen: 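Candidate targets for better recombinant protein yield in mammalian cells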 (primary screen)
- Cells: human HEK293 embryonic kidney cells stably expressing firefly luciferase (HEK-CMV-Luc2-Hygro)
- Knock-down reagent: single siRNA against human genes, 0.8 pmol siRNA per well
- Duration: 72 h
- Measurement: 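Luciferase light (ONE-Glo) measured on one replicate plate set and viability (CellTiter-Glo) on the other, scaled to a negative control siRNA, with robust z-scores and luciferase per cell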
- Reading the numbers: total luciferase, z-score and total luciferase, % of control: higher = more reporter protein produced; luciferase per cell, z-score: higher = more reporter output per viable cell
- Call rule: 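An siRNA counts as active if its total luciferase robust z-score exceeds 3; genes with two or more such siRNAs out of three were retested with fresh siRNAs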
- Meaning of the calls: active = raised luciferase; inactive = no rise
The deposit covers about 59,000 reagents; shown is a random part of them. Of all reagents, about 1,510 (2.6%) got an active call. 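Calls use total luciferase alone and ignore viability, so some active siRNAs may act by altering cell number.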 Entries without a mark were called inactive. Reagents against one gene are numbered here. Further read-outs or replicates are left out here.

Target gene | reagent | total luciferase, z-score | total luciferase, % of control | luciferase per cell, z-score
MAB21L2 | 1 | 2.06 | 123 | 1.56
MAB21L2 | 2 | 0.25 | 86.9 | 0.0586
MAB21L2 | 3 | 0.312 | 88.1 | -0.54
PRR23B | 1 | -0.0428 | 81 | 0.604
PRR23B | 2 | 0.322 | 88.3 | 0.666
PRR23B | 3 | -0.314 | 75.6 | -0.48
ASGR1 | 1 | -0.303 | 75.9 | -0.233
ASGR1 | 2 | -0.0873 | 80.2 | -0.216
ASGR1 | 3 | -1.33 | 55.4 | -1.77
PLPP1 | 1 | -1.26 | 56.8 | -1.69
PLPP1 | 2 | -0.731 | 67.3 | -0.615
PLPP1 | 3 | -0.979 | 62.4 | -1.3
SPRYD4 | 1 | -0.616 | 69.6 | -0.35
SPRYD4 | 2 | 0.105 | 84 | -0.18
SPRYD4 | 3 | -0.217 | 77.6 | 0.123
TSPAN19 | 1 | -0.971 | 62.6 | -0.275
TSPAN19 | 2 | 0.346 | 88.8 | 0.493
TSPAN19 | 3 | -2.08 | 40.5 | -1.62
FABP1 | 1 | -1.51 | 52 | -1.16
FABP1 | 2 | -0.913 | 63.7 | -1.05
FABP1 | 3 | -1.3 | 56 | -1.19
IQCF2 | 1 | 0.32 | 88.2 | 1.37
IQCF2 | 2 | 0.865 | 99.1 | 1.64
IQCF2 | 3 | 0.693 | 95.7 | 0.626
PPP2R3C | 1 | -0.122 | 79.5 | 0.28
PPP2R3C | 2 | 0.454 | 90.9 | 0.329
PPP2R3C | 3 | -1.68 | 48.5 | -1.86
EPAS1 | 1 | -0.166 | 78.6 | -0.384
EPAS1 | 2 | -1.45 | 53 | -1.68
EPAS1 | 3 | -0.297 | 76 | -0.54
CCDC7 | 1 | 3.08 (active) | 143 | 1.62
CCDC7 | 2 | -0.287 | 76.2 | -0.454
CCDC7 | 3 | 0.0682 | 83.2 | -0.592
CCDC7 | 4 | 0.0737 | 83.4 | 0.112
CCDC7 | 5 | -0.117 | 79.6 | -0.235
CCDC7 | 6 | 0.397 | 89.8 | 0.0245

Entries listed so far with an active call, once more:
Target gene | reagent | total luciferase, z-score | total luciferase, % of control | luciferase per cell, z-score
CCDC7 | 1 | 3.08 (active) | 143 | 1.62

Continued:
Target gene | reagent | total luciferase, z-score | total luciferase, % of control | luciferase per cell, z-score
FMNL3 | 1 | -1.63 | 49.4 | -0.944
FMNL3 | 2 | -0.157 | 78.8 | 0.0202
FMNL3 | 3 | 0.0794 | 83.5 | 0.233
CST9 | 1 | -0.804 | 65.9 | -1.06
CST9 | 2 | 0.176 | 85.4 | -0.224
CST9 | 3 | -2.61 | 30 | -2.57
PRKCZ | 1 | -0.715 | 67.7 | 0.00236
PRKCZ | 2 | 0.0643 | 83.2 | -0.485
PRKCZ | 3 | 0.546 | 92.7 | 0.311
DYNLRB2 | 1 | -0.0962 | 80 | -0.882
DYNLRB2 | 2 | -0.851 | 65 | -0.889
DYNLRB2 | 3 | -1.42 | 53.6 | -1.52
RHNO1 | 1 | -0.799 | 66 | -0.495
RHNO1 | 2 | 0.822 | 98.2 | 0.374
RHNO1 | 3 | -1.18 | 58.4 | -1.21
NIPAL3 | 1 | 0.731 | 96.4 | 1.21
NIPAL3 | 2 | 0.74 | 96.6 | 0.263
NIPAL3 | 3 | -0.586 | 70.2 | -0.612
CCDC70 | 1 | -0.775 | 66.5 | 0.488
CCDC70 | 2 | 0.00521 | 82 | 0.00534
CCDC70 | 3 | 1.63 | 114 | 0.854
